Assay results published in PubChem BioAssay AID493014 (National Center for Advancing Translational Sciences (NCATS), 2011).
The whole screen tested about 340,000 compounds, of which about 170 (0.05%) were called active. Inconclusive means that the source gave no clear call. Such entries were picked first, then a sample of the others. Calls follow the shape of the dose curve; as a rule, active = well fitted inhibition curve with a large enough effect in the signal ratio, with a control signal flat (not every such curve was filed as active); inconclusive = small, poorly fitted or top-dose-only effect, or effect the other way, or a change in a side signal; inactive = flat fitted curve, though single readings scatter; the % refers to the signal ratio. Where the call is inconclusive, the potency comes from a doubtful curve fit.
Potency is read from the fitted curve at half-maximal effect.

Experiment: qHTS Assay to Find Inhibitors of Chronic Active B-Cell Receptor Signaling;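 as to activity change, negative = inhibition: plate controls were basal doxycycline-induced cells for no effect and cells given 10 µM MG132 for full effect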
Details: ABC-DLBCL IkBa-CBG/CBR reporter, luminescence ratio (green luciferase fused to IkBa over red control in TMD8 lymphoma cells), 4 h; activity change, negative = inhibition: at 46.1 µM (top of the series)
Procedure, shortened: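 Compounds up to 46 uM were incubated four hours with TMD8 cells whose green CBG68 luciferase is fused to IkappaBalpha; red CBR luminescence normalised the signal, and concentration-effect curves were fitted to fusion, red and ratio data.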
With CCOC(=O)N1CCN(S(=O)(=O)c2ccc(OCC)c3ccccc23)CC1 the “activity change, negative = inhibition” value was inactive: -7.14%.
In the case of COc1ccc(/C=C2\SC(=O)N(CCNC(=O)Cn3[nH]c(=O)c4ccccc4c3=O)C2=O)cc1, the Potency is reported as inconclusive: 25.9 µM [falling, single point].
For CN1CCN(c2ccccc2/C=N/NC(=O)c2cccnc2)CC1, the “activity change, negative = inhibition” value was inactive: 2.38%.
With CC(Oc1ccc(C(=O)NCCc2ccccc2)cc1)C(=O)O (configuration not stated) the activity change, negative = inhibition was inconclusive: -7.58%.
In the case of CC[C@H](C)[C@@H](CN[C@H](C)CNC)NCCC(c1ccccc1)c1ccccc1, the Potency is reported as inconclusive: 17.8 µM [falling, partial curve].
For Cc1cccc(-c2noc(CCC(=O)NCC3CCCO3)n2)c1 (configuration not stated), the Potency was inconclusive: 20.6 µM [rising, single point].
For O=C(NCCc1cccc(C(F)(F)F)c1)C1CCC(=O)N(Cc2ccc(Cl)cc2)C1 (configuration not stated), the activity change, negative = inhibition was inconclusive: 2.87%.
With CCOC(=O)Nc1nnc(-c2ccccc2OC)s1 the “activity change, negative = inhibition” value was inactive: -9.65%.
For CC(C)(C)NC(=O)NC(=O)COC(=O)CNC(=O)c1cc(Cl)cc([N+](=O)[O-])c1, the activity change, negative = inhibition was inconclusive: 0.334%.
For CN(CC(=O)Nc1ccc(F)cc1)C(=O)c1ccc(OCc2cn3ccccc3n2)cc1, the Potency was inconclusive: 32.6 µM [falling, partial curve, poor fit].
For COc1cccc2[nH]c3c(N4CCCCC4)ncnc3c12, the activity change, negative = inhibition was inconclusive: 1.33%.
With NS(=O)(=O)c1ccc(NC(=S)N2CCN(C(=O)C3CCCO3)CC2)cc1 (configuration not stated) the “activity change, negative = inhibition” value was inactive: -3.93%.
In the case of O=C(Nc1ccccc1Cl)OC1CCCCC1, the activity change, negative = inhibition is reported as inconclusive: -0.931%.
With C[C@@H]1CN([C@@H](C)CO)C(=O)c2cc(NC(=O)CCN3CCOCC3)ccc2O[C@@H]1CN(C)C(=O)Nc1ccccc1 the activity change, negative = inhibition was inconclusive: -1.18%.
With CCN(CC)C(=S)SCC(=O)Nc1ccc(F)cc1 the activity change, negative = inhibition was inconclusive: -20.8%.
In the case of O=C(O)CCCc1nc(-c2ccccc2)no1, the Potency is reported as inconclusive: 0.13 µM [rising, full curve].
In the case of NS(=O)(=O)c1cccc(NC(=O)COC(=O)CC2CC3CCC2C3)c1 (configuration not stated), the “activity change, negative = inhibition” value is reported as inactive: -0.745%.
With CCN(CC(=O)Nc1ccc2c(c1)OCCO2)C(=O)CCOc1ccccc1 the activity change, negative = inhibition was inconclusive: -7.37%.
For COc1ccc(CCNc2ncnc3c2c(-c2ccccc2)cn3-c2ccc(F)cc2)cc1OC, the activity change, negative = inhibition was inconclusive: 5.16%.
With Cc1cnn(-c2ccc3nnc(-c4ccc(Br)cc4)n3n2)c1 the Potency was inconclusive: 0.461 µM [falling, full curve].
For Nc1ccc(S(=O)(=O)Nc2nccc(/C=C/c3ccccc3F)n2)cc1, the activity change, negative = inhibition was inconclusive: -0.231%.
With CC(=O)c1cc2c(cc1NC(=O)CN1CCN(c3cccc(C(F)(F)F)c3)CC1)OCO2 the activity change, negative = inhibition was inconclusive: 6.11%.
In the case of Cc1nn(C)c(Cl)c1CN1CCCC(C(=O)Nc2ccc(-c3cscn3)cc2)C1 (configuration not stated), the “activity change, negative = inhibition” value is reported as inactive: -4.63%.
In the case of Cc1ccc(S(=O)(=O)n2nccc2-c2c(-c3ccc(Cl)cc3)noc2C)cc1, the “activity change, negative = inhibition” value is reported as inactive: 7.58%.
In the case of CC(C)(C)OC(=O)[C@H](Cc1ccccc1)NC(=O)c1nc[nH]c1C(=O)N1CCc2ccccc2C1, the “activity change, negative = inhibition” value is reported as inactive: 12.3%.
With CN(C1CCCCC1)S(=O)(=O)c1ccc(=S)[nH]c1 the activity change, negative = inhibition was inconclusive: 9.04%.
In the case of COc1cc(OC)cc(C(=O)Nc2ccccc2C(=O)NCc2cccnc2)c1, the Potency is reported as inconclusive: 10 µM [falling, partial curve].
With COc1ccc(CNC(=O)CSc2ncn[nH]2)cc1OC the “activity change, negative = inhibition” value was inactive: 5.22%.
In the case of CCOc1ccccc1NC(=O)CSc1nc2c(c(=O)n(C)c(=O)n2C)n1C, the “activity change, negative = inhibition” value is reported as inactive: 4.63%.
In the case of CCOC(=O)C(C)/C(C)=N/NC(N)=S (configuration not stated), the Potency is reported as inconclusive: 6.51 µM [cytotoxic, single point].
In the case of Cc1ccc(S(=O)(=O)Nc2ncc(C(F)(F)F)cc2Cl)cc1, the Potency is reported as inconclusive: 17.8 µM [falling, partial curve, poor fit].
With Cc1ccc(NC(=O)C(C)OC(=O)COc2cccc(C(F)(F)F)c2)cc1 (configuration not stated) the “activity change, negative = inhibition” value was inactive: 10.4%.
In the case of COc1ccc(N/C=C(\C#N)S(=O)(=O)c2ccc(Cl)cc2)c(OC)c1, the “activity change, negative = inhibition” value is reported as inactive: -1.91%.
With COCc1cc(C)nc(OCC(=O)N/N=C/c2ccc(O)cc2O)c1C#N the activity change, negative = inhibition was inconclusive: -30%.
With Nc1c(C(=O)CSc2nncn2-c2ccccc2)c(=O)[nH]c(=O)n1C1CC1 the activity change, negative = inhibition was inconclusive: 6.41%.
With O=C(O)c1ccc(NC(=O)C2C3CCC(O3)C2C(=O)O)cc1 (configuration not stated) the activity change, negative = inhibition was inconclusive: 0.349%.
In the case of O=C(Nc1ccc(Cc2ccncc2)cc1)c1cc([N+](=O)[O-])ccc1N1CCOCC1, the “activity change, negative = inhibition” value is reported as inactive: -7.13%.
For O=C1N=c2ccccc2=C1c1sc(Nc2ccc(O)cc2)nc1O, the Potency was inconclusive: 31.6 µM [falling, partial curve].
In the case of O=C(Nc1ccc2c(c1)ncn2-c1ccccc1)c1ccco1, the Potency is reported as inconclusive: 18.4 µM [falling, single point].
For O=C(CCN=C1NS(=O)(=O)c2ccccc21)OCc1nnc(-c2ccccc2)o1, the Potency was inconclusive: 20.6 µM [falling, single point].
In the case of CCCn1c(NCc2ccc3c(c2)OCO3)nc2ccccc21, the activity change, negative = inhibition is reported as inconclusive: 1.52%.
With O=C(COC(=O)c1ccc(S(=O)(=O)NCc2ccco2)cc1)Nc1ccc(OC(F)F)cc1 the Potency was inconclusive: 1.84 µM [rising, full curve, poor fit].
For Cc1ccc(-n2ncc3c(N4CCN(CCO)CC4)ncnc32)cc1Cl, the activity change, negative = inhibition was inconclusive: 4.62%.
For COc1ccc(C2C(=O)c3ccccc3C2=O)cc1, the activity change, negative = inhibition was inconclusive: 1.26%.
With Cc1cccc(C)c1NC(=O)C1CCCCN1C (configuration not stated) the Potency was inconclusive: 12.6 µM [falling, partial curve, poor fit].
With O=C1C=C(NC2CCCC2)CC(c2ccccc2)C1 (configuration not stated) the “activity change, negative = inhibition” value was inactive: -4.2%.
For O=C1CC(c2ccccc2)CC(O)=C1C=NCc1ccccc1Cl (configuration not stated), the Potency was inconclusive: 3.55 µM [falling, full curve, poor fit].
With O=C(Nc1cccnc1)c1ccccc1O the Potency was inconclusive: 4.61 µM [falling, partial curve].
For CC(NC(=O)c1ccc2c(c1)OCO2)C(c1cccs1)N1CCOCC1 (configuration not stated), the “activity change, negative = inhibition” value was inactive: 1.28%.
In the case of O=C(NNC(=O)C1CCCC1)c1cc([N+](=O)[O-])cc([N+](=O)[O-])c1, the “activity change, negative = inhibition” value is reported as inactive: 4.91%.
In the case of CCOC(=O)c1c(NC(=O)Cn2nnc(-c3ccc(Cl)cc3)n2)sc(CC)c1C, the “activity change, negative = inhibition” value is reported as inactive: 15.3%.
In the case of CCOC(=O)[C@H]1[C@H]2COc3ccc(C)cc3[C@@H]2N2C(=O)c3cc(OC)c(OC)cc3NC(=O)[C@@]12C, the “activity change, negative = inhibition” value is reported as inactive: -2.62%.
For COc1ccc(-c2cc(=O)c3cc(OC)c(OC)cc3[nH]2)cc1, the activity change, negative = inhibition was inconclusive: 3%.
With COc1ccc(-c2nc3sc(CCNC(=O)c4cccc(C(F)(F)F)c4)c(C)n3n2)cc1 the “activity change, negative = inhibition” value was inactive: -0.656%.
With CC(=O)c1c(C)[nH]c(C(=O)NCC2CCCCC2)c1C the activity change, negative = inhibition was inconclusive: 13.8%.
In the case of CN(Cc1cnn(C)c1)S(=O)(=O)c1cccc([N+](=O)[O-])c1, the “activity change, negative = inhibition” value is reported as inactive: 6.84%.
With CSc1cccc(NC(=O)c2ccccc2N(C)S(C)(=O)=O)c1 the activity change, negative = inhibition was inconclusive: 4.13%.
For Cc1ccc(-c2nnn(CC(=O)NCC3CC3)n2)o1, the “activity change, negative = inhibition” value was inactive: 7.26%.
In the case of O=C(Nc1nnc(CCc2ccccc2)s1)C1CCCO1 (configuration not stated), the activity change, negative = inhibition is reported as inconclusive: 10.5%.
For CCOc1ccc2c(c1)n(CO)c(=S)n2CO, the activity change, negative = inhibition was inconclusive: 2.89%.
In the case of CCc1nnc(NC(=O)CCC(=O)Nc2ccc(Cl)cc2)s1, the “activity change, negative = inhibition” value is reported as inactive: -1.25%.
For CCCC(=O)NC(c1ccco1)c1cc(Cl)c2cccnc2c1O (configuration not stated), the Potency was inconclusive: 23.1 µM [falling, single point].
In the case of O=C(CNC(=O)c1cccs1)OCc1ccc(Cl)cc1, the activity change, negative = inhibition is reported as inconclusive: 3.69%.
With CC(=O)C1=C(C)NC(SCC(=O)c2ccc(Cl)c(Cl)c2)=C(C#N)C1c1ccco1 (configuration not stated) the activity change, negative = inhibition was inconclusive: -7.07%.
In the case of C=CCN1C(=O)[C@]2(c3ccccc31)C1CCCC=C1C(C#N)=C(N)C2(C#N)C#N (some centres not stated), the activity change, negative = inhibition is reported as inconclusive: -16.1%.
For CC(C)N(C)CCOC(=O)c1ccccc1Cl, the activity change, negative = inhibition was inconclusive: 5.34%.
With O=C(NCCCn1ccnc1)c1cn(-c2ccccc2)nc1-c1ccc(F)cc1 the “activity change, negative = inhibition” value was inactive: 3.47%.
For Cc1ccnc(NC(=O)c2ccc(Cl)c([N+](=O)[O-])c2)c1, the activity change, negative = inhibition was inconclusive: -20.8%.
For O=C(CCCCCN1C(=O)[C@@H]2Cc3ccccc3CN2C1=O)Nc1ccccc1Cl, the Potency was inconclusive: 15.8 µM [falling, partial curve].
For CCCC(C)C(=O)Nc1nc(C)c(-c2csc(Nc3cc(Cl)ccc3C)n2)s1 (configuration not stated), the activity change, negative = inhibition was inconclusive: -10.4%.
For Cc1c(Cl)cccc1NC(=S)N1CCCN(Cc2ccccc2F)C1, the activity change, negative = inhibition was inconclusive: -6.98%.
With COc1cc(NC(=O)Cn2cnc(C(=O)Nc3ccc(C)c(C)c3)n2)cc(OC)c1OC the activity change, negative = inhibition was inconclusive: -0.869%.
For COc1ccc(NC(=O)C2CCCN2S(=O)(=O)c2cccc3cccnc23)cc1OC (configuration not stated), the activity change, negative = inhibition was inconclusive: -29.9%.
With O/N=C1\CCCC\C1=C/c1ccccc1 the activity change, negative = inhibition was inconclusive: 3.11%.
In the case of Cn1nccc1NC(=O)CSCC(=O)O, the activity change, negative = inhibition is reported as inconclusive: 10.9%.
In the case of O=C(CCc1nnc(CCCCc2ccccc2)o1)NCc1cc(F)ccc1F, the activity change, negative = inhibition is reported as inconclusive: -8.91%.
For Cc1cccn2c(=O)c3cc(C(=O)NC4CCCC4)n(C)c3nc12, the activity change, negative = inhibition was inconclusive: 0.904%.
For CCOc1cc(/C=N/NC(=O)COc2cccc(C)c2)ccc1OC(=O)c1cccs1, the Potency was inconclusive: 31.6 µM [rising, partial curve, poor fit].
In the case of COc1ccc2nc(NC(=O)c3ccccc3O)sc2c1, the Potency is reported as inconclusive: 3.55 µM [falling, partial curve].
With COc1ccccc1NC(=O)C(=O)NNC(=O)c1ccco1 the Potency was inconclusive: 5.62 µM [rising, single point].
With Cc1ccc(Cl)cc1NC(=O)C(=O)N1CCCCC1 the “activity change, negative = inhibition” value was inactive: 1.59%.
For FC(F)(F)c1cccc(Nc2nc(N3CCOCC3)nc(N3CCOCC3)n2)c1, the activity change, negative = inhibition was inconclusive: -1.52%.
